From PubChem BioAssay AID1487 (National Center for Advancing Translational Sciences (NCATS), 2009)
The campaign covered roughly 200,000 compounds. About 25 (0.01%) were called active. This list was built around the results that the source calls inconclusive (neither active nor inactive); the mix of calls is not that of the screen. Calls come from the whole dose curve; as a rule, active = well fitted inhibition curve with a large enough effect in the signal ratio, with a control signal flat (not every such curve was filed as active); inconclusive = small, poorly fitted or top-dose-only effect, or effect the other way, or a change in a side signal; inactive = flat fitted curve, though single readings scatter; the % refers to the signal ratio. Potencies of inconclusive entries are doubtful fits and often do not repeat.

Assay: qHTS Assay for Modulators of Lamin A Splicing
Conditions: HeLa LMNA splicing GFP/RFP minigene ratio, 48 h; ratio change, negative = inhibition: at 46.1 µM (top of the series) unless noted
How it was run: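 S3 HeLa stable clones carrying a lamin A-EGFP splicing minigene plus DsRed2 were seeded at 600 cells/well in Opti-MEM with 2% FBS, pin-dosed and incubated 48 h at 37°C. Acumen cytometry (488 nm) gave the GFP/RFP total-intensity ratio.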
% is set by controls: 0 for no effect and ±100 for the full control effect; potency is the fitted concentration of half-maximal effect.

Row | SMILES | ratio change, negative = inhibition | Potency
1 | C[N+]1(C)CCN(c2ccccc2)CC1 | inconclusive: -2.09% | 
2 | NC(=O)COc1c(F)cc(SCCNS(=O)(=O)c2ccccc2)cc1F | inconclusive: -19.1% | 
3 | Cc1ccccc1-n1c(O)c(/C=N/Nc2nc3c(c(=O)n(C)c(=O)n3C)n2C)c(=O)[nH]c1=S | inactive | 
4 | COc1cccc(NC(=O)CN2CC(c3ccccc3)CC2=O)c1 (configuration not stated) | inactive | 
5 | O=C1NC(=O)N(c2ccc3c(c2)OCO3)C(=O)/C1=C/c1ccc(N2CCCC2)o1 | inactive | 
6 | O=c1c2ccccc2nc(CSc2ncnc3nc[nH]c23)n1-c1ccccc1 | inconclusive: 2.19% | 
7 | Cc1ccccc1-n1c(-c2ccco2)nc2ccccc2c1=O | inconclusive: -32.1% | 
8 | CCSP1(=S)N=C(N2CCOCC2)C(C#N)=C2CCCN21 (configuration not stated) | inactive | 
9 | COc1ccc2c(c1)c(C(=O)CN1CCN(C)CC1)c(C)n2Cc1ccccc1 | inconclusive: 18.4% | 
10 | CSc1ccc(C(=O)C2CCCN(Cc3cnc(SC)nc3)C2)cc1 (configuration not stated) | inconclusive: 2.87% [at 46 µM] | 
11 | [N-]=[N+]=CC(=O)OC[C@H](N)C(=O)O | inconclusive: -4.64% | 
12 | CC(=O)NC(Cc1ccc(N(CCCl)CCCl)cc1)C(=O)NC(C(=O)O)C(C)C (configuration not stated) | inactive | 
13 | O=C(c1ccccc1)C(CN1CCCC1)c1ccccc1 (configuration not stated) | inconclusive: -16.8% | 
14 | O=C1CN=C(c2ccc(Br)cc2)c2c(sc3c2CCCC3)N1CCN1CCCCC1 | inconclusive: -1.2% [at 9.22 µM] | 
15 | CC(=O)N1CN2CN(C1)CN(C(C)=O)C2 | inconclusive: -5.39% | 
16 | NC(=O)c1ccc(N=Nc2c(O)[nH]c(=O)[nH]c2=O)cc1 | inactive | 
17 | COc1ccc(CNC(=O)Cn2c(SCC(=O)Nc3ccc(C)c(C)c3)nc3ccccc32)cc1 |  | inconclusive: 35.5 µM [cytotoxic, single point]
18 | CN1C(=O)C(Cc2c[nH]c3ccccc23)C(=O)N(C)C1=O | inactive | 
19 | CCC(C)(C)c1ccc(O)cc1 | inconclusive: 38.1% | 
20 | O=C(c1cc(-c2cccnc2)nc2ccc(Cl)cc12)N1CCC2(CC1)OCCO2 | inactive | 
21 | COc1ccc(/C=C/C2=CCN(C)CC2)cc1 | inactive | 
22 | CCc1ccc(OCC(=O)N2CCN(CCc3ccncc3)CC2)cc1 | inconclusive: -0.0328% [at 46 µM] | 
23 | CC12CCC3C(CCC4C/C(=N/O)CCC43C)C1CCC2O (configuration not stated) | inconclusive: -35.5% | 

Row | SMILES | ratio change, negative = inhibition | Potency
24 | O=C1C2CCN(CC2)[C@@H]1Cc1ccc2ccccc2c1O | inactive | 
25 | O=C1NC(=O)C(CCc2ccncc2)(CCc2ccncc2)C(=O)N1Cc1ccccc1 | inconclusive: -6.96% [at 46 µM] | 
26 | CC1(C)CC(=O)c2cc(OCC(=O)N3CCN(Cc4ccccc4)CC3)ccc2O1 | inconclusive: -10.3% [at 46 µM] | 
27 | CCC(=O)N1CC(=O)Nc2ccc(Cl)cc2C1c1ccc(F)cc1 (configuration not stated) | inconclusive: 32.3% | 
28 | Clc1ccc([C@@H](OCCN2CCCCC2)c2ccccc2)cc1 | inconclusive: -15.9% | 
29 | O=C(Nc1ccncc1)c1cccn(Cc2ccccc2)c1=O | inconclusive: -14.1% [at 46 µM] | 
30 | COc1ccc(Cc2nccc3cc(OC)c(OC)cc23)cc1OC |  | inconclusive: 7.08 µM [inhibitor, partial curve]
31 | CC(=NCCN1CCCCC1)c1c(O)n(Cc2ccccc2)c(=O)[nH]c1=O | inactive | 
32 | COc1ccc(N2C(=O)NC(=O)/C(=C/c3ccc(N4CCOCC4)cc3)C2=O)cc1 | inactive | 
33 | CNCCc1c[nH]c2ccc(O)cc12 |  | inconclusive: 0.0035 µM [activator, full curve, poor fit]
34 | Cc1ccsc1C(=O)C1CCCN(Cc2cnn(C(C)C)c2)C1 (configuration not stated) | inconclusive: 30.7% [at 46 µM] | 
35 | N#CC(C#N)=Cc1cccnc1 | inconclusive: -9.07% [at 46 µM] | 
36 | COc1cc(Cn2c(=O)oc3ccc(C)cc32)ccc1OC(C)C |  | inconclusive: 35.5 µM [falling, single point]
37 | CC(C(=O)c1ccc2ccccc2c1)N1CCCCC1 (configuration not stated) | inconclusive: 19.5% [at 46 µM] | 
38 | COc1cccc(-c2nc(CS(=O)CC(=O)N3CCC4(CC3)OCCO4)c(C)o2)c1 (configuration not stated) | inactive | 
39 | COC(=O)C1=CCCN(C)C1 | inconclusive: -19.7% | 
40 | CC(C)(C)NCC(O)c1cc(Cl)c(N)c(Cl)c1 (configuration not stated) | inconclusive: -12.5% | 
41 | COc1ccccc1-n1c(O)c(C=NCc2ccc3c(c2)OCO3)c(=O)[nH]c1=O | inactive | 
42 | CCOC(=O)c1sc(/N=C/c2c(O)n(-c3cccc(C)c3)c(=O)[nH]c2=O)c(C#N)c1C | inconclusive: -18.2% | 
43 | Cc1c(OCC(F)(F)F)ccnc1CS(=O)c1nc2ccccc2[nH]1 (configuration not stated) |  | inconclusive: 35.5 µM [inhibitor, single point]
44 | CCCCCn1c(=O)c(C(=O)Nc2c(C)n(C)n(-c3ccccc3)c2=O)c(O)c2ccccc21 | inconclusive: -16.4% | 
45 | C[C@]12CC(=CO)C(=O)C[C@@H]1CC[C@@H]1[C@@H]2CC[C@@]2(C)[C@H]1CC[C@]2(C)O | inconclusive: -3.38% [at 46 µM] | 
46 | N#CCCn1cc(C(=O)Nc2ccc(F)cc2)c(-c2ccc([N+](=O)[O-])cc2)n1 | inconclusive: 2.66% [at 46 µM] | 

Row | SMILES | ratio change, negative = inhibition | Potency
47 | CN(C)CC1CSCCC1(O)c1ccccc1 (configuration not stated) | inactive | 
48 | CC(=O)O[C@]1(c2ccccc2)CCN(C)[C@H]2CCCC[C@@H]21 | inactive | 
49 | CCN(CC)c1ccc(CNCCc2ccccc2F)cc1 | inconclusive: -4.94% [at 46 µM] | 
50 | C[C@@H](Cc1ccccc1)NCCC(c1ccccc1)c1ccccc1 | inconclusive: -14.4% | 
51 | OCC1OC(n2cnc3c(Cl)ncnc32)C(O)C1O (configuration not stated) |  | inconclusive: 7.08 µM [fluorescent, full curve]
52 | CC(C)CCON=O | inconclusive: -11.6% | 
53 | COc1ccc(NC(=O)CCc2nc(C3=CCN(Cc4cccc(Cl)c4)CC3)no2)c(OC)c1 |  | inconclusive: 6.31 µM [rising, partial curve, poor fit]
54 | CC1CN=C(Nc2ccc(N(C)C)cc2)S1 (configuration not stated) | inactive | 
55 | CNC(C(=O)c1ccccc1)C(OC(C)C)c1ccc(Cl)cc1 (configuration not stated) | inactive | 
56 | CCn1c(O)c(C=Nc2ccc(S(N)(=O)=O)cc2)c(=O)n(CC)c1=S | inactive | 
57 | COc1ccc(C2NCCc3[nH]cnc32)cc1 (configuration not stated) | inconclusive: 15% [at 46 µM] | 
58 | Oc1cc(Cl)ccc1Oc1ccc(Cl)cc1Cl |  | inconclusive: 0.0316 µM [inhibitor, full curve, poor fit]
59 | Brc1c(Br)c(Br)c2n[nH]nc2c1Br |  | inconclusive: 12.6 µM [cytotoxic, partial curve]
60 | C[C@]12N[C@H](Cc3ccccc31)c1ccccc12 | inconclusive: 31.3% | 
61 | OC(CCNCCc1c[nH]c2ccccc12)C(F)(F)Cl (configuration not stated) | inconclusive: -4.64% [at 46 µM] | 
62 | CCOc1ccc(C2SCC(=O)Nc3c2c(=O)[nH]n3C2CCCCCC2)cc1 (configuration not stated) | inconclusive: -2.33% | 
63 | COc1ccc(-n2c(/C=C/c3cccc(F)c3)nc3ccccc3c2=O)cc1Cl | inconclusive: -13% [at 46 µM] | 
64 | O=C1NC(=O)C2(Cc3ccccc3N3CCCC32)C(=O)N1 (configuration not stated) | inactive | 
65 | CC12CN3CC(C)(CN(C1)C3c1cccs1)C2O (configuration not stated) | inactive | 
66 | C=CCC1(C(C)CCC)C(=O)N=C(S)NC1=O (configuration not stated) | inconclusive: -16.4% | 
67 | CC(C)(C)c1o[nH]c(=O)c1CC(N)C(=O)O (configuration not stated) | inconclusive: 19.8% | 

Part of the list above in order of heavy-atom count, largest number first:
Row | SMILES | ratio change, negative = inhibition | Potency
2 | NC(=O)COc1c(F)cc(SCCNS(=O)(=O)c2ccccc2)cc1F | inconclusive: -19.1% | 
30 | COc1ccc(Cc2nccc3cc(OC)c(OC)cc23)cc1OC |  | inconclusive: 7.08 µM [inhibitor, partial curve]
29 | O=C(Nc1ccncc1)c1cccn(Cc2ccccc2)c1=O | inconclusive: -14.1% [at 46 µM] | 
18 | CN1C(=O)C(Cc2c[nH]c3ccccc23)C(=O)N(C)C1=O | inactive | 
16 | NC(=O)c1ccc(N=Nc2c(O)[nH]c(=O)[nH]c2=O)cc1 | inactive | 
57 | COc1ccc(C2NCCc3[nH]cnc32)cc1 (configuration not stated) | inconclusive: 15% [at 46 µM] | 
